Data as given in PubChem BioAssay AID1224827 (NIAID, 2016).

Assay: 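Retest primary hits on a TNF reporter with six siRNAs per gene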 (follow-up of hits)
Cell system: RAW264.7 G9 mouse macrophage reporter clone
Reagents: single siRNA against mouse genes, 100 nM siRNA
Duration: siRNA for 2 days, then LPS about 16 h
Challenge: bacterial lipopolysaccharide (LPS), 10 ng/ml, cells fixed after overnight (about 16 h) stimulation
Measurement: 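TNF promoter reporter red fluorescence in nuclei, background subtracted, normalised per plate and to non-targeting control siRNA, as z-scores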
Reading the numbers: TNF reporter z-score, mean: higher = stronger Tnf promoter reporter signal
Rule for the call: 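An siRNA is called active when its mean z-score over replicates is at least +2 or at most -2; control wells get no call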
The whole screen tested about 3,800 reagents; below is an unselected part. About 2,200 of them (57%) were called active. 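Active means a strong reporter change in either direction; calls are per siRNA, not per gene; qiagen siRNAs gave weaker effects.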 Entries without a mark were called inactive. The numbers tell different reagents against one gene apart. Further read-outs or replicates are left out here.

gene	siRNA no.	TNF reporter z-score, mean
Vmn1r231 (vomeronasal 1 receptor 231)	1	-3.33 (active)
Vmn1r231 (vomeronasal 1 receptor 231)	2	-3.62 (active)
Vmn1r231 (vomeronasal 1 receptor 231)	3	-4.34 (active)
Vmn1r231 (vomeronasal 1 receptor 231)	4	2.01 (active)
Vmn1r231 (vomeronasal 1 receptor 231)	5	-0.79
Vmn1r231 (vomeronasal 1 receptor 231)	6	-2.04 (active)
Reps2 (RALBP1 associated Eps domain containing protein 2)	1	1.97
Reps2 (RALBP1 associated Eps domain containing protein 2)	2	-3.63 (active)
Reps2 (RALBP1 associated Eps domain containing protein 2)	3	-5.76 (active)
Reps2 (RALBP1 associated Eps domain containing protein 2)	4	3.46 (active)
Reps2 (RALBP1 associated Eps domain containing protein 2)	5	1.95
Reps2 (RALBP1 associated Eps domain containing protein 2)	6	0.472
Or10v5 (olfactory receptor family 10 subfamily V member 5)	1	2.72 (active)
Or10v5 (olfactory receptor family 10 subfamily V member 5)	2	-3.38 (active)
Or10v5 (olfactory receptor family 10 subfamily V member 5)	3	-4.81 (active)
Or10v5 (olfactory receptor family 10 subfamily V member 5)	4	3.27 (active)
Or10v5 (olfactory receptor family 10 subfamily V member 5)	5	0.642
Or10v5 (olfactory receptor family 10 subfamily V member 5)	6	-0.513
Trmt9b (tRNA methyltransferase 9B)	1	5.24 (active)
Trmt9b (tRNA methyltransferase 9B)	2	-2.78 (active)
Trmt9b (tRNA methyltransferase 9B)	3	-3.04 (active)
Trmt9b (tRNA methyltransferase 9B)	4	3.89 (active)
Trmt9b (tRNA methyltransferase 9B)	5	1.25
Trmt9b (tRNA methyltransferase 9B)	6	-3.2 (active)
Mthfsd (methenyltetrahydrofolate synthetase domain containing)	1	1.91
Mthfsd (methenyltetrahydrofolate synthetase domain containing)	2	-2.35 (active)
Mthfsd (methenyltetrahydrofolate synthetase domain containing)	3	-3.96 (active)
Mthfsd (methenyltetrahydrofolate synthetase domain containing)	4	-0.532
Mthfsd (methenyltetrahydrofolate synthetase domain containing)	5	-1.06
Mthfsd (methenyltetrahydrofolate synthetase domain containing)	6	-1.3
Zfp428 (zinc finger protein 428)	1	2.81 (active)
Zfp428 (zinc finger protein 428)	2	-2.66 (active)
Zfp428 (zinc finger protein 428)	3	-3.34 (active)
Zfp428 (zinc finger protein 428)	4	1.25
Zfp428 (zinc finger protein 428)	5	-1.12
Zfp428 (zinc finger protein 428)	6	-1.58
Cadm1 (cell adhesion molecule 1)	1	-0.0358
Cadm1 (cell adhesion molecule 1)	2	-2.87 (active)
Cadm1 (cell adhesion molecule 1)	3	-5.95 (active)
Cadm1 (cell adhesion molecule 1)	4	3.36 (active)
Cadm1 (cell adhesion molecule 1)	5	3.4 (active)
Cadm1 (cell adhesion molecule 1)	6	0.639
Or2t46 (olfactory receptor family 2 subfamily T member 46)	1	1.79
Or2t46 (olfactory receptor family 2 subfamily T member 46)	2	1.58
Or2t46 (olfactory receptor family 2 subfamily T member 46)	3	0.46
Or2t46 (olfactory receptor family 2 subfamily T member 46)	4	-0.56
Or2t46 (olfactory receptor family 2 subfamily T member 46)	5	-1.1
Or2t46 (olfactory receptor family 2 subfamily T member 46)	6	-2.47 (active)
Il24 (interleukin 24)	1	-0.362
Il24 (interleukin 24)	2	-1.51
Il24 (interleukin 24)	3	-4.02 (active)
Il24 (interleukin 24)	4	2.16 (active)
Il24 (interleukin 24)	5	0.634
Il24 (interleukin 24)	6	-2.33 (active)
Ssb (small RNA binding exonuclease protection factor La)	1	-2.79 (active)
Ssb (small RNA binding exonuclease protection factor La)	2	-3.25 (active)
Ssb (small RNA binding exonuclease protection factor La)	3	-4.06 (active)
Ssb (small RNA binding exonuclease protection factor La)	4	4.3 (active)
Ssb (small RNA binding exonuclease protection factor La)	5	0.93
Ssb (small RNA binding exonuclease protection factor La)	6	-1.8
